The values that follow come from publication PMC10988296.

Sequences of proteins named here, by UniProt entry; tags and fusion partners are left off.
UniProt O95793: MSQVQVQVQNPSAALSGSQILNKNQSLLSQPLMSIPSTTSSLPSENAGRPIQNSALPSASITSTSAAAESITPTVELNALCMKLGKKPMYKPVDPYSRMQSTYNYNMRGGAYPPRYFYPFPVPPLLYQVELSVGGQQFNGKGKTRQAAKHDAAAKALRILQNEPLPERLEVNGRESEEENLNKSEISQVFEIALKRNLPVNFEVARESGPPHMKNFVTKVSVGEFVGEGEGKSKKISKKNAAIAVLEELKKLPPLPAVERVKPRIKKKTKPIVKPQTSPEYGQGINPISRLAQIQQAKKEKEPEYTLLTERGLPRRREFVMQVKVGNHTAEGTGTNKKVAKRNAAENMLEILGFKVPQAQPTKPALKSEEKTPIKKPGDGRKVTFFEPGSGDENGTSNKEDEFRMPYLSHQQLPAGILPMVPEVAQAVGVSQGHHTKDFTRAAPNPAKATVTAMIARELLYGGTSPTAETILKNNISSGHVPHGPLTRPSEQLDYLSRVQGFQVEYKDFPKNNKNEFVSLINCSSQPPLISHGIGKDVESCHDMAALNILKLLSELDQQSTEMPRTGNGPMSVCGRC
UniProt P38919: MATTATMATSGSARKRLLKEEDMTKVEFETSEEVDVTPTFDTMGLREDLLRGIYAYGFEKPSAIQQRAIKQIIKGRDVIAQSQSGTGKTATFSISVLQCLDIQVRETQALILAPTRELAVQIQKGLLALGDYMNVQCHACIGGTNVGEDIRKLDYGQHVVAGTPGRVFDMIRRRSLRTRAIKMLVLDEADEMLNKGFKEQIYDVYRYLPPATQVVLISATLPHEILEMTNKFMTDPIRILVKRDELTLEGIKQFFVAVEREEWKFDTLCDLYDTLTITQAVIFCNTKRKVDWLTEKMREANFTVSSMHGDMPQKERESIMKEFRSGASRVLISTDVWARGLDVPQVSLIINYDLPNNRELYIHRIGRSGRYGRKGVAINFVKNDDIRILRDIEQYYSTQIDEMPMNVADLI

The target of assay [1] is STAU1, endogenous (human (endogenous in HEK293T, KYSE150, HepG2)) (UniProt O95793). Put plainly: co-IP; Flag-labeled full-length or deletion mutants of eIF4A3 transfected into HEK293T; IP with mouse anti-STAU1 (endogenous STAU1), Flag detected by western blot. A general note: Immunoblotting shows a protein as a band on a membrane.
For assay [2] the target is unchanged. Put plainly: co-IP; endogenous proteins, cells after circ-231 knockdown; IP of STAU1, eIF4A3 by western blot.
Assay [3] has the same target. Put plainly: co-IP; endogenous proteins in HepG2 cells, with or without circ-231 knockdown; precipitating antibody not given.
The target of assay [4] is HA-STAU1-wt (pcDNA3.1-HA-STAU1 full-length) (UniProt O95793). As to the kind of experiment: co-IP; HA-labeled full-length or deletion mutants of STAU1 transfected into HEK293T; IP with rabbit anti-HA, endogenous eIF4A3 detected by western blot.
For assay [5], the target named is STAU1, endogenous (human (endogenous in HEK293T, KYSE150, HepG2)) (UniProt O95793). Put plainly: co-IP; endogenous proteins in HEK293T or KYSE150 lysate (50 mM Tris-HCl pH 7.5, 150 mM NaCl, 0.5% NP-40); IP with mouse anti-STAU1, protein A/G magnetic beads, eIF4A3 by western blot; cells with Scramble or circ-231 knockdown.

These are yes or no findings as the source states them, for the method shown. In cells and extracts the contact can be indirect. Some entries that bind do so weakly or less than the wild type.

As to “Flag-eIF4A3-wt (pcDNA3.1-Flag-eIF4A3 full-length) (from UniProt P38919 1-411)”, the binding entry in assay [1] is listed as “binds”.
“Eukaryotic translation initiation factor 4A-III (eIF4A3), endogenous (from UniProt P38919 1-411)”: the binding entry in assay [2] was “no binding (condition: after circ-231 knockdown)”; in assay [3], “binds”; in assay [4], “binds”; in assay [5], “binds”.
